Source: patent US6825181B1, “Aminoisoquinoline derivatives” (Ajinomoto Co., Inc., priority 1998, dated 2004)
At least one structure is not confirmed: it was looked up by name or label, or the drawing left a doubt.

System: blood plasma from healthy people (prothrombin time)
Experiment: Determination of blood anticoagulating activity by prothrombin time (PT) determination method
Assay type: biochemical
Conditions: negative logarithm of concentration which elongated PT of the control to twice as long; human blood plasma
Description: Determination of Blood Anticoagulating Activity:
The blood anticoagulating activity was determined by a prothrombin time (PT) determination method. The PT was determined as follows: The blood was taken from healthy people. 3.8% aqueous trisodium citrate solution was added to the blood in a volume ratio of 1:10. The blood plasma was separated by the centrifugation. 5 μl of DMSO solution containing a test compound was added to 45 μl of the blood plasma. After the incubation at room temperature for 2 minutes, a test tube containing the blood plasma solution was placed in Sysmex CA-3000 fully automatic blood coagulation determination device (a product of To a Medical Electronics Co., Ltd.), and incubated at 37° C. for 3 minutes. 100 μl of Sysmex PT II (rabbit brain tissue thromboplastin, 13.2 mM calcium chloride; a product of To a Medical Electronics Co., Ltd.) was fed into the test tube. PT was automatically determined with the device. A sample containing […] of DMSO in place of the solution of the test compound was used as the control. The negative logarithm (PT2) of the concentration of the test compound which elongated PT of the control to the twice as long was determined, and employed as the index of the blood anticoagulating activity.

Compound: Nc1nccc2cc(CC(=O)C(=O)O)c(OCCNC(=O)c3ccc(C(=O)N4CCCC4)cc3)cc12 [Compound of Ex. 23, 3-[1-amino-(2-(4-(1-pyrrolidinecarbonyl)benzoylamino)ethoxy)isoquinoline-6-yl]-2-oxopropionic acid mono-trifluoroacetate]
- Blood anticoagulating activity (PT2): 5.6
